In the supplement of paper PMC10849652:
The list shows a part of the results.

Protein sequences, listed by entry. Tags and fused reporters are not part of them. Lines headed by an entry give the natural chain unless they say otherwise; changes in a name come on top.
UniProt Q8WXE1: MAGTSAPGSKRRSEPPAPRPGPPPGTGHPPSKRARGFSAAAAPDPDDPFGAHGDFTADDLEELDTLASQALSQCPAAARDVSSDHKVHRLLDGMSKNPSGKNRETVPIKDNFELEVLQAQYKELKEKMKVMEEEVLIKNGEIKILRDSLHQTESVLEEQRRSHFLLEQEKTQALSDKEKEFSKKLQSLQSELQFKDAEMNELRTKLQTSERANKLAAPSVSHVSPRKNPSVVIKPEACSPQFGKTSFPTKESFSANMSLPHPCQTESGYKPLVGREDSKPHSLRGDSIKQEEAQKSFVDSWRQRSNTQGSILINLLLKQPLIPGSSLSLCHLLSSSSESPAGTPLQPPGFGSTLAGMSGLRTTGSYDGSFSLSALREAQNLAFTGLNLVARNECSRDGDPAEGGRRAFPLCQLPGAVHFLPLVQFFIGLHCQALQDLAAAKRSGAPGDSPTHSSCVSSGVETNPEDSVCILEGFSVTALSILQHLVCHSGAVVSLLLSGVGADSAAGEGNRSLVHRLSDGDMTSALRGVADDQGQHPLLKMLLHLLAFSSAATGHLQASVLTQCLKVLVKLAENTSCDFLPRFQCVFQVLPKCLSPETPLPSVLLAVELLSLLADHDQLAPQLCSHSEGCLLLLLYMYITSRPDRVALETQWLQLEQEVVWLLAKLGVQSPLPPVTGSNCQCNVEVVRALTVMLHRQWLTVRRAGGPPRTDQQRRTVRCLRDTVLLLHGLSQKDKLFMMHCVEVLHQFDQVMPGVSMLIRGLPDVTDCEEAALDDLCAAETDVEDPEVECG
UniProt O94766: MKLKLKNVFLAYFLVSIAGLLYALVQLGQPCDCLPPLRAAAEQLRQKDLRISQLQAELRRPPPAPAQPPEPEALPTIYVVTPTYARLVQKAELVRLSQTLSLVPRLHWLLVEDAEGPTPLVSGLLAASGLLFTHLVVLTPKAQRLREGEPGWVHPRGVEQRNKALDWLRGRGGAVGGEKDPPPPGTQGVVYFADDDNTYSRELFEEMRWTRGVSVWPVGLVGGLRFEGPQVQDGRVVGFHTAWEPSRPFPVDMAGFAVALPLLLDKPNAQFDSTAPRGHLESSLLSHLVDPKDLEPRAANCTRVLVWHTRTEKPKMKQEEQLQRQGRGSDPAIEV
UniProt Q9NWV8, whole entry, looked up: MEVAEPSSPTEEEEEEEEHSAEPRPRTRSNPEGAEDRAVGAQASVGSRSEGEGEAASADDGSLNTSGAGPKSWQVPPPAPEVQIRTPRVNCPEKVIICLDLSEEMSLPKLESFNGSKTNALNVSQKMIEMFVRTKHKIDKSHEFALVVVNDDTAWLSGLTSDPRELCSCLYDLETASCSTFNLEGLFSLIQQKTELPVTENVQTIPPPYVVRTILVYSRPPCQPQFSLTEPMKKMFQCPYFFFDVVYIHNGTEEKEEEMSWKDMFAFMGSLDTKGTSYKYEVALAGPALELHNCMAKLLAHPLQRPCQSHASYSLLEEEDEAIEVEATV
UniProt Q9H3K6: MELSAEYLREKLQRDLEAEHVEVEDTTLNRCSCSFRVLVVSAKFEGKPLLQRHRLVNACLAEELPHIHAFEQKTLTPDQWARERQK
UniProt Q6QNY1: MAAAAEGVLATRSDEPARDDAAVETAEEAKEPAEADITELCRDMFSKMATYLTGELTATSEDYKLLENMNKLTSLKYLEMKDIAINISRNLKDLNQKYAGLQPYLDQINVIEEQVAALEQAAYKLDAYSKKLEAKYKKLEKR
UniProt O95817, whole entry, looked up: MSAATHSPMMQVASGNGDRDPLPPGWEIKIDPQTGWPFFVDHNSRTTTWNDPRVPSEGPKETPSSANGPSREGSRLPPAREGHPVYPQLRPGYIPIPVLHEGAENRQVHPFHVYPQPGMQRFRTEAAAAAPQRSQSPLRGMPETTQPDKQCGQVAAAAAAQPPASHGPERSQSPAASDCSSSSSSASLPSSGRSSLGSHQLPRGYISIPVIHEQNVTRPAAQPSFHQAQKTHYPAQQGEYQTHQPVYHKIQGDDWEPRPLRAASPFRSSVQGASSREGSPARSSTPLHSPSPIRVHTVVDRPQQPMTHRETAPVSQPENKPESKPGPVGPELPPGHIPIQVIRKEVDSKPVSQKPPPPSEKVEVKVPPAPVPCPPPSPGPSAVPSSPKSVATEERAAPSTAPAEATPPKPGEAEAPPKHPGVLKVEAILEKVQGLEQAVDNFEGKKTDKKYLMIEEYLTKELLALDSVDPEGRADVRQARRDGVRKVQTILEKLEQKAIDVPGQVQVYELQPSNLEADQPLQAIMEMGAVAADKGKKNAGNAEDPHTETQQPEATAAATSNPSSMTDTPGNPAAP
UniProt Q07812, whole entry, looked up: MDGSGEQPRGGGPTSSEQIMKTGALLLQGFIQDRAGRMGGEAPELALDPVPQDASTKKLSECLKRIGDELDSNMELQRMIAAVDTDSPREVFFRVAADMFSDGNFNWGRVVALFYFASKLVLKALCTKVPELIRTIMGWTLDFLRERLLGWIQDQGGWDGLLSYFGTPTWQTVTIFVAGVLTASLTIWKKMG
UniProt P11274: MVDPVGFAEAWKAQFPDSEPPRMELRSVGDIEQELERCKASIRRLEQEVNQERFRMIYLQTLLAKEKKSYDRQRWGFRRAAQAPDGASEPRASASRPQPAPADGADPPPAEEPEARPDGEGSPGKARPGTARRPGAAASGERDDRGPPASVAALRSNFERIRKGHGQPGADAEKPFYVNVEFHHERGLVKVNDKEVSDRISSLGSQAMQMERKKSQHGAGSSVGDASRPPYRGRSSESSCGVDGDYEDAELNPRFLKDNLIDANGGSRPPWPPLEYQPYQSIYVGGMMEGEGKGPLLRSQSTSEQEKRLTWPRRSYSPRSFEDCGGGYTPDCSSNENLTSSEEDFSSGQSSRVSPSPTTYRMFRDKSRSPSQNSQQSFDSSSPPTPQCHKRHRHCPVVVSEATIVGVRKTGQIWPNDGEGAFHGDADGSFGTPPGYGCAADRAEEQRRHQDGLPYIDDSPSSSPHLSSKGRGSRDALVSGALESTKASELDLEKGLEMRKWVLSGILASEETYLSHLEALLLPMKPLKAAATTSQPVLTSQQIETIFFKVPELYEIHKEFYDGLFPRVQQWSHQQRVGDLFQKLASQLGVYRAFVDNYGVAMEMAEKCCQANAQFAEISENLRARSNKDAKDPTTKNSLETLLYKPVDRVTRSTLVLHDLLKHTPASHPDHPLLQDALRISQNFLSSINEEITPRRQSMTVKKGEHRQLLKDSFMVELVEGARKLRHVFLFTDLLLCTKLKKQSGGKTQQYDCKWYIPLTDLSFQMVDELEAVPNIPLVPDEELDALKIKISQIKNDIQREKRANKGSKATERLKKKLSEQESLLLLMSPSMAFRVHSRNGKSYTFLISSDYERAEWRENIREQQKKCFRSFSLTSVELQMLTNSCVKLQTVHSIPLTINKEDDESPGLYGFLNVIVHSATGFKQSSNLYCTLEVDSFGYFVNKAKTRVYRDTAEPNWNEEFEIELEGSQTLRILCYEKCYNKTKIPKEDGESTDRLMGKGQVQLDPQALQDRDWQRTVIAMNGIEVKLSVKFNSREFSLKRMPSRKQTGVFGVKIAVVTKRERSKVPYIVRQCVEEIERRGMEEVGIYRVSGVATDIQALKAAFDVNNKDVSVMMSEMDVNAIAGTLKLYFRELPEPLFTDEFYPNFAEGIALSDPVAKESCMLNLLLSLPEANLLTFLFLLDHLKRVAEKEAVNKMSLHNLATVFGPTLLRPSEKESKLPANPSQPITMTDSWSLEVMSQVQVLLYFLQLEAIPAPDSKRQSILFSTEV
UniProt Q6QNY0: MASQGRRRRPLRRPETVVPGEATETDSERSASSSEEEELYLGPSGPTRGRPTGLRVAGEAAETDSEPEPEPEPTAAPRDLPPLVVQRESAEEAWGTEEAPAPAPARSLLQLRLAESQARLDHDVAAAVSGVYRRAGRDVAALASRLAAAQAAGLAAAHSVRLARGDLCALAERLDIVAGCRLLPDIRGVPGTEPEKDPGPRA
UniProt Q96GX2: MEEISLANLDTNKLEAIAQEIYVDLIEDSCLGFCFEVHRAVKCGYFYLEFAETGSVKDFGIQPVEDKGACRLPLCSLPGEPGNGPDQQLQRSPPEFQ
UniProt Q8NBF6: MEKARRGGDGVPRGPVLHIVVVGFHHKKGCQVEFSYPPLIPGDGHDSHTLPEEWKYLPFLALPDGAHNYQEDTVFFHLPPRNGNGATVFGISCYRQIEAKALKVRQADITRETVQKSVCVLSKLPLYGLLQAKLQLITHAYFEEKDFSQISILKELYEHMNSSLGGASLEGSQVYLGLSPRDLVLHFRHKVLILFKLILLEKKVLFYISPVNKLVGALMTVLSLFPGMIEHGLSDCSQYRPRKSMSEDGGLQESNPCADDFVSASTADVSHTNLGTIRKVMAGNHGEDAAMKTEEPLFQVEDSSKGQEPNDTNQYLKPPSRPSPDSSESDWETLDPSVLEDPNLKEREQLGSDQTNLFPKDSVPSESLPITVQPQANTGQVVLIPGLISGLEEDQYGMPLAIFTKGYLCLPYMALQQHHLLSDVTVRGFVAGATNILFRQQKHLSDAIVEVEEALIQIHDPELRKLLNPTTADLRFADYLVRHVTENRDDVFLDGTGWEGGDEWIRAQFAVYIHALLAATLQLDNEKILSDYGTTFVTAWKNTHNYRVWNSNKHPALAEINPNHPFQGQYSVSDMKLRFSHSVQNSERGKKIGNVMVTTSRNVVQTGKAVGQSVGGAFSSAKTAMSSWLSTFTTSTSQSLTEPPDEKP
UniProt O00512: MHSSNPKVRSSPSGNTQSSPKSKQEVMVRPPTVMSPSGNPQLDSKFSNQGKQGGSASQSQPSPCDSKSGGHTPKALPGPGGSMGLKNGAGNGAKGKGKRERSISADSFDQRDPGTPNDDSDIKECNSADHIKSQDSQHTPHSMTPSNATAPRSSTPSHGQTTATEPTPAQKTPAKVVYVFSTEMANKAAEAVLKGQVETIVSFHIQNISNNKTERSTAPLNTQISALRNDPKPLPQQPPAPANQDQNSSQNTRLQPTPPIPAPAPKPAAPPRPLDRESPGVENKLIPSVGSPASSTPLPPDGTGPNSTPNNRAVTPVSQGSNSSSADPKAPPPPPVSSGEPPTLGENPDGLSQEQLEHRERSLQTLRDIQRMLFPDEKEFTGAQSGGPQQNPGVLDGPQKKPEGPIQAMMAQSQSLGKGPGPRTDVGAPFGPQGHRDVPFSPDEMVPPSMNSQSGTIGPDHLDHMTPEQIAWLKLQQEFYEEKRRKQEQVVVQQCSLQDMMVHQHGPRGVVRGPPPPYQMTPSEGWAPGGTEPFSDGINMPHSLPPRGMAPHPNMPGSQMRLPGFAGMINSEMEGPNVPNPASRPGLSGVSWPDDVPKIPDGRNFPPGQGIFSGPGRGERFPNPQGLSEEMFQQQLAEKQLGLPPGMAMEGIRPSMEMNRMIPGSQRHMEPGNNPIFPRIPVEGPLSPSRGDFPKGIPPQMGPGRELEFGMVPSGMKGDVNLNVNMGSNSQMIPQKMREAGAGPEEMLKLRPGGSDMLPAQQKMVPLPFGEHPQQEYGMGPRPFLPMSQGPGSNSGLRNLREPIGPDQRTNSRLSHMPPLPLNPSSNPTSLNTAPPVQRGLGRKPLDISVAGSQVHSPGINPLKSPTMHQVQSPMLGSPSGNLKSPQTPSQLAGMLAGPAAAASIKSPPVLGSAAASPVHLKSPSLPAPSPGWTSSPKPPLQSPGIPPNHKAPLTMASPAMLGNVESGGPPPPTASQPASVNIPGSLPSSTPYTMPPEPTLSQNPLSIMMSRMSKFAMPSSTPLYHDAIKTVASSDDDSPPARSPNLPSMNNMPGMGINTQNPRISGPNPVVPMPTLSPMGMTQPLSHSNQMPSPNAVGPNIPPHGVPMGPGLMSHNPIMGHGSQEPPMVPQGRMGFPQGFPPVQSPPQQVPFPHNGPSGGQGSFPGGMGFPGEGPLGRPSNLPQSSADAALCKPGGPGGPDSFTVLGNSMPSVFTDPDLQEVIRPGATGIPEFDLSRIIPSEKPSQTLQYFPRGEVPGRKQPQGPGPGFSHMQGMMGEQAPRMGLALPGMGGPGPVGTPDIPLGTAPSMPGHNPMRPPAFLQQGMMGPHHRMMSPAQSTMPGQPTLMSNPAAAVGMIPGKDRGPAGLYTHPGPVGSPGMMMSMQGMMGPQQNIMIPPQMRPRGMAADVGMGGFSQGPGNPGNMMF
UniProt Q9BXK5, whole entry, looked up: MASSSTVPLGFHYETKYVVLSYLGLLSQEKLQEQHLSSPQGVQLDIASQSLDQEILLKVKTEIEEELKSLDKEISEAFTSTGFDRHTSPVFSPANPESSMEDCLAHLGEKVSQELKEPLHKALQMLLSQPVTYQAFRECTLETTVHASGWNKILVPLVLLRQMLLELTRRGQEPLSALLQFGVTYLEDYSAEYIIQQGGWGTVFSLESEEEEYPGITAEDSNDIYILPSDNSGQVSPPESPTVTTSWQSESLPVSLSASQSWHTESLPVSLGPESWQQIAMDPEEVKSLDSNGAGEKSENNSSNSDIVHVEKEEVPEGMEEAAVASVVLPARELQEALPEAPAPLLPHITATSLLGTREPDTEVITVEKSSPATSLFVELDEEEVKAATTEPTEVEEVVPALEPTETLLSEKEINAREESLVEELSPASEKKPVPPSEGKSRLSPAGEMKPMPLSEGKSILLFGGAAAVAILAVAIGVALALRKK

Assays:
Experiment in all cases: log2 fold change, soluble protein after heating vs DMSO (PISA); higher = thermal stabilisation; K562 cells, 10 uM, 30 min; active = over 0.2 and 3.5 SD of the protein, either way, in both replicates (recomputed)
[1] = compound: CS(=O)(=O)c1ccc(-c2cnc(N)c(C(=O)Nc3ccccc3)n2)cc1
How it was run: (§1)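 Aliquots of K562 cells (2×10^6 cells/mL) treated with 10 μM compound for 30 min were heated for 3 min over 48°C-58°C. After pooling and extraction in PBS with 0.5% NP-40 at 4°C, soluble protein from a 21,000xg, 90 min spin was quantified by TMTpro 16plex LC-MS/MS with channel sums equalised. Thermal stability is expressed against control samples, from duplicates, as a log2 fold change.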

[2] = compound: C[C@@H](Oc1cc(-c2cnn(C3CCNCC3)c2)cnc1N)c1c(Cl)ccc(F)c1Cl [crizotinib]
How it was run: as §1

[3] = compound: C[C@@H]1COCCN1C2=NC(=NC(=C2)C3(CC3)S(=O)(=O)C)C4=C5C=CNC5=CC=C4
How it was run: as §1

[4] = compound: C[C@H](C1=CC=C(C=C1)C(=O)NC2=C3C=CNC3=NC=C2)N
How it was run: as §1

[5] = compound: C[C@H](Nc1ncnc2nc[nH]c12)c1cc2cccc(Cl)c2c(=O)n1-c1ccccc1 [duvelisib]
How it was run: as §1

[6] = compound: Cc1cc(Nc2cc(CN3CCOCC3)c3nc(C)c(Cc4ccc(Cl)cc4F)n3n2)n[nH]1 [gandotinib]
How it was run: as §1

[7] = compound: Cc1cc(Nc2cc(N3CCN(C)CC3)nc(Sc3ccc(NC(=O)C4CC4)cc3)n2)n[nH]1 [tozasertib]
How it was run: as §1

[8] = compound: Cc1cc(SCc2sc(-c3ccc(C(F)(F)F)cc3)nc2C)ccc1OCC(=O)O
How it was run: as §1

[9] = compound: Cc1ccc(-n2nc(C(C)(C)C)cc2NC(=O)Nc2ccc(OCCN3CCOCC3)c3ccccc23)cc1 [doramapimod]
How it was run: as §1

[10] = compound: Cc1ccc(C(=O)N(CCCN)[C@@H](c2nc3cc(Cl)ccc3c(=O)n2Cc2ccccc2)C(C)C)cc1 [ispinesib]
How it was run: as §1

Measured: log2 fold change

B3GNT2 (UniProt Q9NY97)
inactive: [1] 0.032 | [2] -0.007 | [3] 0.046 | [4] -0.038 | [5] -0.034 | [6] -0.022 | [7] 0.017 | [8] 0 | [9] 0.105 | [10] -0.032

ATRIP (UniProt Q8WXE1)
inactive: [1] 0.018 | [2] 0.007 | [3] 0.007 | [4] -0.017 | [5] 0.03 | [6] -0.07 | [7] 0.057 | [8] 0.033 | [9] 0.063 | [10] -0.043

B3GAT3 (UniProt O94766)
inactive: [1] 0.052 | [2] 0.026 | [3] 0.04 | [4] 0.001 | [5] 0.063 | [6] -0.027 | [7] 0.007 | [8] 0.018 | [9] 0.013 | [10] 0.042

BACH1 (UniProt O14867)
inactive: [1] -0.027 | [2] 0.04 | [3] 0.013 | [4] 0.019 | [5] -0.03 | [6] 0.024 | [7] 0.018 | [8] -0.043 | [9] 0.008 | [10] -0.009

BABAM1 (UniProt Q9NWV8)
inactive: [1] 0.044 | [2] 0.056 | [3] -0.096 | [4] -0.011 | [5] -0.057 | [6] 0.041 | [7] -0.015 | [8] -0.051 | [9] -0.046 | [10] -0.008

Looked up one by one from above (2):
BABAM1 (UniProt Q9NWV8)
inactive: [1] 0.044 | [2] 0.056 | [3] -0.096 | [4] -0.011 | [5] -0.057 | [6] 0.041 | [7] -0.015 | [8] -0.051 | [9] -0.046 | [10] -0.008

B3GNT2 (UniProt Q9NY97)
inactive: [1] 0.032 | [2] -0.007 | [3] 0.046 | [4] -0.038 | [5] -0.034 | [6] -0.022 | [7] 0.017 | [8] 0 | [9] 0.105 | [10] -0.032

The list goes on:

BCAT1 (UniProt P54687)
inactive: [1] -0.005 | [2] 0.019 | [3] 0.02 | [4] -0.019 | [5] 0.034 | [6] -0.013 | [7] -0.024 | [8] -0.007 | [9] -0.028 | [10] 0.006

BOLA2 (UniProt Q9H3K6)
inactive: [1] -0.011 | [2] 0.143 | [3] 0.085 | [4] -0.055 | [5] 0.034 | [6] -0.032 | [7] 0.122 | [8] 0.056 | [9] -0.004 | [10] 0.092

BLOC1S5 (UniProt Q8TDH9)
inactive: [1] -0.005 | [2] -0.018 | [3] 0.092 | [4] -0.034 | [5] 0.076 | [6] 0.01 | [7] 0.045 | [8] -0.058 | [9] -0.001 | [10] 0.034

BLOC1S2 (UniProt Q6QNY1)
inactive: [1] 0.054 | [2] -0.01 | [3] -0.032 | [4] 0.023 | [5] 0.069 | [6] -0.103 | [7] -0.014 | [8] -0.055 | [9] -0.283 | [10] -0.007

BOP1 (UniProt Q14137)
inactive: [1] -0.008 | [2] 0.11 | [3] -0.153 | [4] 0.064 | [6] 0.025 | [8] 0.134 | [9] -0.008 | [10] -0.114

BAG3 (UniProt O95817)
inactive: [1] 0.033 | [2] -0.013 | [3] 0.007 | [4] 0.019 | [5] 0.048 | [6] 0.093 | [7] -0.021 | [8] -0.05 | [9] -0.028 | [10] 0

B3GLCT (UniProt Q6Y288)
inactive: [1] 0.009 | [2] 0.023 | [3] 0.007 | [4] 0.03 | [5] -0.006 | [6] -0.063 | [7] -0.007 | [8] -0.019 | [9] 0.003 | [10] -0.048

BAX isoform 2 (UniProt Q07812)
inactive: [1] -0.018 | [2] 0.017 | [3] -0.021 | [4] -0.022 | [5] 0.071 | [6] 0.064 | [7] 0.022 | [8] -0.025 | [9] 0.016 | [10] 0.064

BCR (UniProt P11274)
inactive: [1] 0.115 | [2] 0.005 | [3] -0.075 | [4] 0.399 | [5] -0.205 | [6] 0 | [7] -0.062 | [8] 0.084 | [9] 0.227 | [10] -0.287

BCKDK (UniProt O14874)
inactive: [1] -0.011 | [2] -0.046 | [3] 0.007 | [4] 0.106 | [5] 0.025 | [6] 0.036 | [7] 0.004 | [8] -0.033 | [9] 0.036 | [10] -0.033

BRI3BP (UniProt Q8WY22)
inactive: [1] 0.023 | [2] -0.111 | [3] -0.089 | [4] 0.024 | [5] 0.038 | [7] -0.023 | [8] 0.046 | [9] 0.015 | [10] -0.012

BLOC1S3 (UniProt Q6QNY0)
inactive: [1] -0.001 | [2] 0.014 | [3] 0.116 | [4] 0.065 | [6] -0.132 | [8] -0.052 | [9] -0.038 | [10] 0.012

BAG5 isoform 2 (UniProt Q9UL15)
inactive: [1] 0.032 | [2] -0.036 | [3] -0.018 | [4] -0.046 | [6] -0.07 | [7] 0.055 | [9] 0.015 | [10] -0.06

BAG1 (UniProt Q99933)
inactive: [1] 0 | [2] -0.009 | [3] 0.048 | [4] -0.001 | [5] 0.088 | [6] 0.035 | [7] -0.026 | [8] -0.01 | [9] 0.037 | [10] -0.002

ATXN7L3B (UniProt Q96GX2)
inactive: [1] 0.005 | [2] 0.049 | [3] 0.102 | [4] -0.044 | [5] 0.231 | [6] 0.019 | [7] 0.098 | [8] -0.042 | [9] 0.037 | [10] 0.06

BCKDHB (UniProt P21953)
inactive: [1] -0.025 | [2] 0.012 | [3] -0.051 | [4] -0.024 | [5] 0.048 | [6] 0.063 | [7] 0.057 | [8] -0.025 | [9] -0.048 | [10] -0.12

BAG2 (UniProt O95816)
inactive: [1] -0.055 | [2] 0.05 | [3] -0.27 | [4] 0.255 | [5] -0.166 | [6] 0.03 | [7] 0.087 | [8] -0.025 | [9] 0.21 | [10] -0.154

BCAR1 isoform 6 (UniProt P56945)
inactive: [1] 0.031 | [2] -0.104 | [3] -0.054 | [4] 0.08 | [5] 0.019 | [6] -0.081 | [7] 0.053 | [8] -0.022 | [9] 0.038 | [10] -0.033

BABAM2 (UniProt Q9NXR7)
inactive: [1] 0.018 | [2] 0.003 | [3] 0.011 | [4] -0.049 | [5] -0.018 | [6] 0.106 | [7] -0.036 | [8] -0.044 | [9] -0.021 | [10] 0.015

BRAT1 (UniProt Q6PJG6)
inactive: [1] 0.043 | [2] -0.047 | [3] 0.02 | [4] -0.103 | [5] 0.029 | [6] 0.013 | [7] 0.024 | [8] 0.082 | [9] -0.002 | [10] -0.046

BRD8 (UniProt Q9H0E9)
inactive: [1] 0 | [2] -0.021 | [3] 0.018 | [4] 0.06 | [6] -0.013 | [8] -0.054 | [9] 0.023 | [10] -0.022

BMS1 (UniProt Q14692)
inactive: [1] -0.06 | [2] -0.033 | [3] -0.169 | [4] 0.358 | [5] -0.219 | [6] 0.153 | [7] 0.032 | [8] 0.048 | [9] 0.229 | [10] -0.141

BCAS2 (UniProt O75934)
inactive: [1] 0.001 | [2] 0.134 | [3] 0.087 | [4] -0.075 | [5] -0.07 | [6] 0.121 | [7] 0.133 | [8] 0.075 | [9] 0.022 | [10] 0.116

AVL9 (UniProt Q8NBF6)
inactive: [1] 0 | [2] -0.181 | [3] 0.07 | [4] -0.061 | [5] 0.054 | [6] -0.08 | [7] -0.011 | [8] 0.013 | [9] -0.023 | [10] -0.082

BCL9 (UniProt O00512)
inactive: [1] -0.02 | [2] 0.032 | [3] 0.061 | [4] 0.018 | [5] 0.094 | [6] 0.067 | [7] 0.03 | [8] -0.044 | [9] -0.1 | [10] 0.115

BCL2L13 (UniProt Q9BXK5)
inactive: [1] 0.026 | [2] -0.035 | [3] 0.051 | [4] -0.109 | [5] 0.021 | [6] 0.016 | [7] 0.019 | [8] -0.018 | [9] 0.014 | [10] 0.013
